Results: US12414918B2, “Pharmaceutical composition of lipid nanoparticle for delivering nucleic acid drug containing trehalose derivative and novel structure-maintaining lipid compound” (SML BIOPHARM CO., LTD., priority 2021, dated 2025)
At least one structure is not confirmed: it was looked up by name or label, or the drawing left a doubt.

Test system: Renilla luciferase (R/L) expression
Experiment: Evaluation of delivery efficiency by detection of protein expression level (R/L mRNA-LNP injected intradermally into mouse ear, luminescence of ear lysate)
Format: in vivo, ICR mice
Conditions: ionizable lipid:trehalose-based lipid:DOPE:cholesterol (or substitute):DMG-PEG 25:25:10:38.5:1.5
Protocol: An RNA platform in which a nucleic acid sequence encoding Renilla luciferase (R/L), which has an IRES element derived from encephalomyocarditis virus (EMCV) and is a known reporter gene, was inserted as a target sequence was constructed. The template DNA was designed and the nucleic acid molecule of the single-stranded RNA platform was constructed using an IVT procedure.
Lipid nanoparticles were prepared from 0.625 mg/mL of an RNA solution (50 mM sodium citrate buffer, 110 mM NaCl, pH=4.0) and a lipid-mixture solution (ethanol) using a laboratory mixer and emulsifier (NanoAssembir Spark, Precision NanoSystems) and subjected to solvent conversion with physiological saline using a filter tube for centrifugation (UFC5010, Amicon). […]
The experiment was performed according to the following procedure. […] R/L, which was actually tested, expression, and maintenance were detected at two points of time: after 6 hours and 24 hours.
Each mouse was anesthetized using a respiratory anesthetic, and a drug that satisfied the experimental conditions was injected into the mouse through an insulin syringe. […] Then, 20 μl of the mixture was transferred to a white 96-well plate, 100 μl of Renilla luciferase assay substrate from Promega Corporation was added thereto, and luminescence was measured to compare expression.

CC1=C(/C=C/C(C)=C/C=C/C(C)=C/C(=O)O)C(C)(C)CCC1 [retinoic acid]
usability as cholesterol substitute in lipid nanoparticles: appropriate cholesterol substitutes
